Measurements reported in article PMC11249239 (PLOS ONE, 2024).
Read-outs that look alike come from different tables or passages of the source.

Columns and labels:
Type in all cases: cell-based
[1] = tested on: MCF10A normal breast epithelial cells; experiment: Cell growth inhibition (CCK8 cytotoxicity assay), MCF10A; conditions: Homo sapiens, MCF-10A, 48 h, 48 h treatment, read-out: Average EC50 ± SD, cell growth inhibition
Excerpt: (§1) Prism-GraphPad software was used to analyze data.

T47D (ER+) cells = experiment: Cell growth inhibition (CCK8 cytotoxicity assay), T47D; conditions: Homo sapiens, 48 h, 48 h treatment, read-out: Average EC50 ± SD, cell growth inhibition
Excerpt: as §1

MDA-MB-231 (TNB) cells = experiment: Cell growth inhibition (CCK8 cytotoxicity assay), MDA-MB-231; conditions: Homo sapiens, MDA-MB-231, 48 h, 48 h treatment, read-out: Average EC50 ± SD, cell growth inhibition
Excerpt: as §1

HCC-1937 (TNB) cells = experiment: Cell growth inhibition (CCK8 cytotoxicity assay), HCC-1937; conditions: 48 h treatment, read-out: Average EC50 ± SD, cell growth inhibition
Excerpt: as §1

CC/C(=C(\c1ccccc1)c1ccc(OCCN(C)C)cc1)c1ccccc1 [Tamoxifen, reference compound]
EC50 [1]: 15 ± 0.233 µM | EC50 (T47D (ER+) cells): 1.69 ± 0.218 µM | EC50 (MDA-MB-231 (TNB) cells): 15.3 ± 1.85 µM | EC50 (HCC-1937 (TNB) cells): 1.49 ± 0.213 µM | EC50 (HCC-1937 (TNB) cells; Homo sapiens, HCC1937, 48 h): 1.49 µM
